Results: paper PMC9342898
Results are given in words; binding and its absence hold for the method and conditions named.

Target: tDab2, C-terminal truncation of disabled-2 (residues 649–770) (UniProt P98082)
Test: SEC-MALS; 100 µl of 2 mg/ml protein on Superdex 200 (30 × 1 cm), 150 mM NaCl, 50 mM Tris.HCl pH 7.5, 1 mM DTT, room temperature; both purified

- binding: no binding (tested: 2 mg/ml)
B1: tDab2, C-terminal truncation of disabled-2 (residues 649–770) (domain or fragment, UniProt P98082 649-770)
chain: KDVKEMFKDFQLRQPPAVPARKGEQTSSGTLSAFASYFNSKVGIPQENADHDDFDANQLLNKINEPPKPAPRQVSLPVTKSTDNAFENPFFKDSFGSSQASVASSQPVSSEMYRDPFGNPFA
